Results from US20070086998A1.
Where a chain is given by its changes, count along the chain named. These are yes or no findings as the source states them, for the method shown.

B1: MS-GPC-8-27-10 (Fab) (Fab, V domains shown)
VH: QVQLKESGPALVKPTQTLTLTCTFSGFSLSTSGVGVGWIRQPPGKALEWLALIDWDDDKYYSTSLKTRLTISKDTSKNQVVLTMTNMDPVDTATYYCARSPRYRGAFDYWGQGTLVTVSS
VL: DIVLTQPPSVSGAPGQRVTISCSGSESNIGANYVNWYQQLPGTAPKLLIYDNNQRPSGVPDRFSGSKSGTSASLAITGLQSEDEADYYCQSYDMNVHVFGGGTKLTVLG
B2: MS-GPC-8-6-13 (Fab) (Fab, V domains shown)
VH: B1 VH
VL: B1 VL with N35T, M94Y, N95D, V96H, H97Y
B3: MS-GPC-8-27-41 (Fab) (Fab, V domains shown)
VH: B1 VH
VL: B1 VL with A31N, N35Q
B4: MS-GPC-8-6-47 (Fab) (Fab, V domains shown)
VH: B1 VH
VL: B1 VL with A31S, N35S, M94Y, N95D, V96H, H97Y
B5: MS-GPC-8-10-57 (Fab) (Fab, V domains shown)
VH: B1 VH
VL: B1 VL with A31N, N35Q, M94L, N95I, V96R
B6: MS-GPC-8-6-27 (Fab) (Fab, V domains shown)
VH: B1 VH
VL: B1 VL with E26D, N35T, M94Y, N95D, V96H, H97Y
B7: MS-GPC-8-Fab (Fab, V domains shown)
VH: B1 VH
VL: B1 VL with E26S, A31S, N35S, N95P, V96Q, H97A
B8: MS-GPC-8-6 (Fab) (Fab, V domains shown)
VH: B1 VH
VL: B1 VL with E26S, A31S, N35S, M94Y, N95D, V96H, H97Y
B9: MS-GPC-8-27-7 (Fab) (Fab, V domains shown)
VH: B1 VH
VL: B1 VL with A31N, N35G

target: lysozyme; test: ELISA, antigen 10 µg/well

binding, no binding (tested: 100 ng/well):
B1
B2
B3
B4
B5
B6
B7
B8
B9
